From the supplement of paper PMC12282887
Values are raw readings; no control value is given beside them.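 The top concentration was set near the MIC for antimicrobials, at 500 µM for most other compounds, and up to 1 mM for known inducer-like compounds. Deletion strains started from a tenfold smaller inoculum, and wells growing below 10% of the overall median were treated as non-growing.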

System: Escherichia coli BW25113
Assay: growth (OD600 area under curve, 8 h) (OD600 x h); higher = more growth
Method: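 E. coli BW25113 reporter strains (wild type, ΔmarA, ΔsoxS, Δrob, each carrying one of 8 lux reporter plasmids) were grown in 40 µl LB in 384-well plates at 37°C, 800 rpm, with each compound at 4 two-fold concentrations, in biological duplicates. Growth is the baseline-corrected OD600 area under the curve over 8 h (0-8 h WT, 1-9 h deletion strains).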

Cc1ncc([N+](=O)[O-])n1CCO [Metronidazole]
growth
Details	reporter plasmid: EVC	reporter plasmid: acrABp	reporter plasmid: marRABp	reporter plasmid: micFp	reporter plasmid: ompFp	reporter plasmid: robp	reporter plasmid: soxSp	reporter plasmid: tolCp
0.11 µg/ml, genetic background: wild type	3.2	3.33	3.3	3.28	3.4	3.5	3.191	3.304
0.11 µg/ml, genetic background: ΔmarA	3.7	4.58	4.01	3.61	3.88	4.34	3.39	3.33
0.11 µg/ml, genetic background: Δrob	3.08	3.23	3.59	3.39	2.97	2.85	3.11	3.38
0.11 µg/ml, genetic background: ΔsoxS	3.42	3.5	3.51	3.14	3.3	3.47	3.287	3.27
0.21 µg/ml, genetic background: wild type	3.18	3.4	3.21	3.2	3.41	3.44	3	3.25
0.21 µg/ml, genetic background: ΔmarA	3.45	4.34	3.94	3.43	3.52	4.26	3.15	3.3
0.21 µg/ml, genetic background: Δrob	2.96	3.14	3.61	3.25	2.62	2.9	3.03	3.22
0.21 µg/ml, genetic background: ΔsoxS	3.22	3.47	3.28	2.88	3.19	3.2	3.27	3.17
0.43 µg/ml, genetic background: wild type	3.125	3.41	3.36	3.18	3.33	3.47	2.99	3.207
0.43 µg/ml, genetic background: ΔmarA	3.57	4.4	3.79	3.59	3.78	4.19	3.39	3.36
0.43 µg/ml, genetic background: Δrob	3.1	3.28	3.45	3.33	3.09	2.77	3.03	3.29
0.43 µg/ml, genetic background: ΔsoxS	3.43	3.49	3.5	3.15	3.24	3.5	3.37	3.45
0.86 µg/ml, genetic background: wild type	2.92	3.24	3.23	3.01	3.18	3.3	2.919	3.151
0.86 µg/ml, genetic background: ΔmarA	3.45	4.11	3.63	3.46	3.61	4.11	3.24	3.084
0.86 µg/ml, genetic background: Δrob	3.02	2.83	3.24	3.12	2.79	2.6	2.98	3.19
0.86 µg/ml, genetic background: ΔsoxS	3.33	3.21	3.18	2.83	3.1	3.03	3	3.344

CN(C)c1ccc(O)c2c1C[C@H]1C[C@H]3[C@H](N(C)C)C(O)=C(C(N)=O)C(=O)[C@@]3(O)C(O)=C1C2=O [Minocycline]
growth
Details	reporter plasmid: EVC	reporter plasmid: acrABp	reporter plasmid: marRABp	reporter plasmid: micFp	reporter plasmid: ompFp	reporter plasmid: robp	reporter plasmid: soxSp	reporter plasmid: tolCp
0.062 µg/ml, genetic background: wild type	3.34	3.4	3.36	3.18	3.18	3.34	3.15	3.22
0.062 µg/ml, genetic background: ΔmarA	3.67	4.33	3.83	3.52	3.74	4.14	3.47	3.41
0.062 µg/ml, genetic background: Δrob	3.24	3.074	3.52	3.34	2.82	2.94	3.16	3.4
0.062 µg/ml, genetic background: ΔsoxS	3.57	3.59	3.48	3.3	3.226	3.55	3.45	3.51
0.12 µg/ml, genetic background: wild type	3.05	3.23	3.12	3.18	3.25	3.3	3.163	3.278
0.12 µg/ml, genetic background: ΔmarA	3.47	4.43	3.95	3.58	3.75	4.16	3.31	3.4
0.12 µg/ml, genetic background: Δrob	2.99	2.95	3.54	3.28	2.87	2.8	2.94	3.27
0.12 µg/ml, genetic background: ΔsoxS	3.25	3.43	3.27	3.123	3.22	3.36	3.26	3.353
0.25 µg/ml, genetic background: wild type	3.23	3.31	3.51	3.02	3.14	3.4	3.17	3.18
0.25 µg/ml, genetic background: ΔmarA	3.78	4.27	4.04	3.58	3.77	4.34	3.55	3.5517
0.25 µg/ml, genetic background: Δrob	3.18	3.28	3.52	3.33	2.95	2.89	3.05	3.33
0.25 µg/ml, genetic background: ΔsoxS	3.49	3.52	3.47	3.24	3.469	3.67	3.5	3.46
0.49 µg/ml, genetic background: wild type	2.79	2.18	2.24	2.64	2.51	2.35	2.67	2.86
0.49 µg/ml, genetic background: ΔmarA	3.46	3.8	3.25	3.45	3.18	3.9	3.15	3.25
0.49 µg/ml, genetic background: Δrob	2.63	1.65	2.19	2.91	2.14	1.71	2.8	2.78
0.49 µg/ml, genetic background: ΔsoxS	3.168	2.52	2.84	2.68	2.77	2.8	3.18	3.19
